Sequences of proteins named here, by UniProt entry; tags and fusion partners are left off. A change or cut given only in a name is not applied to a line headed by its entry.
UniProt Q13094: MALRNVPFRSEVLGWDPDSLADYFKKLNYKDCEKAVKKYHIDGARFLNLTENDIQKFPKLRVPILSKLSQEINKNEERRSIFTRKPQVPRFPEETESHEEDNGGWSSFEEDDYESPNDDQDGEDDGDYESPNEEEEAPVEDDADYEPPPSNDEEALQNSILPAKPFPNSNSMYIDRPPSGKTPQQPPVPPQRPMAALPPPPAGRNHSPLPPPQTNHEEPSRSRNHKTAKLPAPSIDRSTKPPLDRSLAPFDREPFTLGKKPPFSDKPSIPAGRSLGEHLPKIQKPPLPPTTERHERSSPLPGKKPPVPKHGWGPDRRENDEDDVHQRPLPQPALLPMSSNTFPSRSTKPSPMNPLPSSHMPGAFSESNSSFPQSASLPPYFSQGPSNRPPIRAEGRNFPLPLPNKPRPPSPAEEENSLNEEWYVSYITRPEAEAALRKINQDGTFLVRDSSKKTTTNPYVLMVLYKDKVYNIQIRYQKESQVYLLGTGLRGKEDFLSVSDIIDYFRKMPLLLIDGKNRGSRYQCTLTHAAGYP

In article doi:10.1101/2025.09.11.675682:

Target: His6-3C-Halo-tev-ITK(C96E/T110I)-FLAG
Assay: ITC; PEAQ-ITC; 5°C; 20 mM Hepes (pH 7.4), 100 mM NaCl, 0.1 mM DTT; SLP-76 4 μM in the cell, Itk 40 μM in the syringe (methods); both purified

QPPVPPQRPMAALPPP (peptide, UniProt Q13094 185-200) [SLP-76 PRR peptide (aa 185–200), wild type]
binding: no binding (tested: 4 μM in the cell, 40 μM in the syringe)

These are yes or no findings as the source states them, for the method shown.
